Values joined by “and” are separate entries in the source; they are usually repeats but may differ in a detail not shown here. Equal entries are not always repeated. Not every detail of the peptide structures is certain; ends, links or a residue may be inferred. No end group written: not given here.
Assays:
apoE4 = apoE4 (Homo sapiens, UniProt P02649, C130R); experiment: Reduction of apoE4 neurotoxic Aβ1-42 promoting activity, MTT assay (Example 12); format: cell-based; conditions: human cortical neurons
neuron-like PC-12 cells [1] = experiment: Blocking peptides against neurotoxicity of β-protein and Apolipoprotein E4, MTT release assay; format: cell-based; conditions: one day incubation
α1 -ACT [2] = target: T1, α1 -ACT (Homo sapiens, UniProt P01011); conditions: disclosed in U.S. Ser. No. 08/179,574; cited from earlier work
T1 sequence (P01011 24-423): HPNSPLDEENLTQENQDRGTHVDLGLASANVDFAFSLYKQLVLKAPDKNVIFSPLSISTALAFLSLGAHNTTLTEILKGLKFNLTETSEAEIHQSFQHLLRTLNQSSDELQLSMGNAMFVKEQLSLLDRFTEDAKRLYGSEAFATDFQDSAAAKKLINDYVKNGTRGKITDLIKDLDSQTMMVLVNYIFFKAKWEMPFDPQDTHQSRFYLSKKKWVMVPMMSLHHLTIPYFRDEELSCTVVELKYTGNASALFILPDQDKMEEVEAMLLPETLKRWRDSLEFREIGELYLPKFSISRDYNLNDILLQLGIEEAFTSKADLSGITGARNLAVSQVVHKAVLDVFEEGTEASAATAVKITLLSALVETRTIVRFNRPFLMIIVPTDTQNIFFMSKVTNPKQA

Protein sequences, listed by entry. Tags and fused reporters are not part of them. Residues count along the entry.
UniProt P02649, 19-317 C130R: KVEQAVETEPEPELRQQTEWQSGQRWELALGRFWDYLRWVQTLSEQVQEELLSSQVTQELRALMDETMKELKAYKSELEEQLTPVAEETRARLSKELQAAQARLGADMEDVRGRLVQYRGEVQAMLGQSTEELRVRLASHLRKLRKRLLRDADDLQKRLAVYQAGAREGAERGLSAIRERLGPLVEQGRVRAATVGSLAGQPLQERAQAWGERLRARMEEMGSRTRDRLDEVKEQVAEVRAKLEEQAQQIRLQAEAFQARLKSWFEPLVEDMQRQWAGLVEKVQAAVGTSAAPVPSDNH

α1 -ACT [3] = target: T1, α1 -ACT; conditions: disclosed in U.S. Ser. No. 08/179,574; cited from earlier work; remark: listed apart in the source
neuron-like PC-12 cells [4] = experiment: Blocking peptides against neurotoxicity of β-protein and α1-antichymotrypsin, MTT release assay; format: cell-based; conditions: one day incubation
ACT = target: T2, ACT (Homo sapiens, UniProt P01011); experiment: Reduction of ACT neurotoxic Aβ1-42 promoting activity, MTT assay (Example 12); format: cell-based; conditions: human cortical neurons
T2 construct: purchased CalBiochem
T2 sequence (P01011 24-423): T1 sequence (P01011 24-423)

Q: What does the source list for CC(C)C[C@H](NC(=O)[C@H](CCCCN)NC(=O)[C@H](CCC(N)=O)NC(=O)[C@H](Cc1c[nH]cn1)NC(=O)[C@H](Cc1c[nH]cn1)NC(=O)[C@@H](N)C(C)C)C(=O)N[C@H](C(=O)N[C@@H](Cc1ccccc1)C(=O)N[C@@H](Cc1ccccc1)C(=O)N[C@@H](C)C(=O)N[C@@H](CCC(=O)O)C(=O)N[C@@H](CC(=O)O)C(=O)N[C@H](C(=O)NCC(=O)N[C@@H](CO)C(=O)N[C@@H](CC(N)=O)C(=O)N[C@@H](CCCCN)C(=O)O)C(C)C)C(C)C [Aβ12-28]?
A: concentration at which reduction of apoE4 neurotoxic Aβ1-42 promoting activity was observed (apoE4; MTT): 1 nM; decrease of apoE4 function in promoting the formation of neurotoxic Aβ1-42 (apoE4; preincubated with apoE 0.4 μM, then Aβ1-42 80 μM): 6-9 fold; reduction of neurotoxicity of β-protein and Apolipoprotein E4 (neuron-like PC-12 cells [1]): four and about four to five

Q: For CC(C)[C@H](NC(=O)[C@H](CCC(=O)O)NC(=O)[C@H](Cc1ccc(O)cc1)NC(=O)CNC(=O)[C@H](CO)NC(=O)[C@H](CC(=O)O)NC(=O)[C@H](Cc1c[nH]cn1)NC(=O)[C@H](CCCNC(=N)N)NC(=O)[C@H](Cc1ccccc1)NC(=O)[C@H](CCC(=O)O)NC(=O)[C@H](C)NC(=O)[C@@H](N)CC(=O)O)C(=O)O [Aβ1-12], which “complex formation with α1-ACT” value (α1 -ACT [2]) is on record?
A: form stable complexes

Q: What about the “effect on the ability of α1-ACT to inhibit chymotrypsin” value (α1 -ACT [3]) of the same compound?
A: suppress the ability of α1 -ACT to inhibit chymotrypsin

Q: What about the “reduction of neurotoxicity of β-protein and α1-antichymotrypsin” value (neuron-like PC-12 cells [4]) of the same compound?
A: about five

Q: Which “concentration at which reduction of ACT neurotoxic Aβ1-42 promoting activity was detected” value (ACT; MTT) does the source give for AEFRHDSG [Aβ2-9] here?
A: 1 nM

Q: What about the “reduction of ACT activity in promoting the formation of neurotoxic Aβ1-42” value (ACT; peptide 0.8 μM preincubated with ACT 0.4 μM, then Aβ1-42 80 μM) of the same compound?
A: 2-2.4 fold and 2.0 to 2.4 fold

Reference: patent publication US6214569A, “Methods for screening for inhibitors of Alzheimer β-peptide filament formation” (President and Fellows of Harvard College, priority 1997, dated 2001)
